Results: the supplement of paper PMC10849652
The other results are listed elsewhere or left out.

The chains behind the UniProt entries cited, without tags or fusion partners. Where a name states a change or a piece, a line headed by the entry shows the natural chain unless it says otherwise.
UniProt Q6NVY1: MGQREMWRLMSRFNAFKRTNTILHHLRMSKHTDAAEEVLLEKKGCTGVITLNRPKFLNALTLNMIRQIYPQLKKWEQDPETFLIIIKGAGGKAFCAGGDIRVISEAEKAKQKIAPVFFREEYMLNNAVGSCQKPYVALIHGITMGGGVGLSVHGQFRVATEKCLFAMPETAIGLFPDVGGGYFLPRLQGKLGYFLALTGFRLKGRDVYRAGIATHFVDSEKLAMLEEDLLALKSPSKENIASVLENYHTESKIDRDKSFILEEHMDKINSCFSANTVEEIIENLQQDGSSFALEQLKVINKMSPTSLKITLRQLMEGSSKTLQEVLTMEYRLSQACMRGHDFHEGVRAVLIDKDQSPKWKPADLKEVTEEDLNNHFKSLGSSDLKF
UniProt Q15011: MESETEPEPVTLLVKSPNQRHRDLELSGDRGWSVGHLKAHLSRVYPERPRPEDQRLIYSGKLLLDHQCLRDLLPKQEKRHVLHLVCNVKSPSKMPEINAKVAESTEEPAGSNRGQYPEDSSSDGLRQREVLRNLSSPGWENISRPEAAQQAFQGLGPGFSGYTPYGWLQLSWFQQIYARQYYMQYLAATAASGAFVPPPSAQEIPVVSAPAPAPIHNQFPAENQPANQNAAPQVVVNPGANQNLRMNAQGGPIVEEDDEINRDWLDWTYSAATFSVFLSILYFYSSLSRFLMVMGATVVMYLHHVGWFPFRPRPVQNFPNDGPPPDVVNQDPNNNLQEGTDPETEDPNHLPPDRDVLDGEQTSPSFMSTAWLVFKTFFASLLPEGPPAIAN
UniProt Q9H2F3: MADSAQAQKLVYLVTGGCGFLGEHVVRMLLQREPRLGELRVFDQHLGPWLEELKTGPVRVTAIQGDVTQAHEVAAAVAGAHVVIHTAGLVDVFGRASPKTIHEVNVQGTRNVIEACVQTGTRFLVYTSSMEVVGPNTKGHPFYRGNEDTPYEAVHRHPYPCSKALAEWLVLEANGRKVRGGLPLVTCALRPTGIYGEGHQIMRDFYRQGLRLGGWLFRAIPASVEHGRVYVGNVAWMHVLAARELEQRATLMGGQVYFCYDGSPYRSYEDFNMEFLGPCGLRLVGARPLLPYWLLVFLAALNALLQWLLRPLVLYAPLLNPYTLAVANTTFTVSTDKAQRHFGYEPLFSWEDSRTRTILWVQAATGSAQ
UniProt Q969F9: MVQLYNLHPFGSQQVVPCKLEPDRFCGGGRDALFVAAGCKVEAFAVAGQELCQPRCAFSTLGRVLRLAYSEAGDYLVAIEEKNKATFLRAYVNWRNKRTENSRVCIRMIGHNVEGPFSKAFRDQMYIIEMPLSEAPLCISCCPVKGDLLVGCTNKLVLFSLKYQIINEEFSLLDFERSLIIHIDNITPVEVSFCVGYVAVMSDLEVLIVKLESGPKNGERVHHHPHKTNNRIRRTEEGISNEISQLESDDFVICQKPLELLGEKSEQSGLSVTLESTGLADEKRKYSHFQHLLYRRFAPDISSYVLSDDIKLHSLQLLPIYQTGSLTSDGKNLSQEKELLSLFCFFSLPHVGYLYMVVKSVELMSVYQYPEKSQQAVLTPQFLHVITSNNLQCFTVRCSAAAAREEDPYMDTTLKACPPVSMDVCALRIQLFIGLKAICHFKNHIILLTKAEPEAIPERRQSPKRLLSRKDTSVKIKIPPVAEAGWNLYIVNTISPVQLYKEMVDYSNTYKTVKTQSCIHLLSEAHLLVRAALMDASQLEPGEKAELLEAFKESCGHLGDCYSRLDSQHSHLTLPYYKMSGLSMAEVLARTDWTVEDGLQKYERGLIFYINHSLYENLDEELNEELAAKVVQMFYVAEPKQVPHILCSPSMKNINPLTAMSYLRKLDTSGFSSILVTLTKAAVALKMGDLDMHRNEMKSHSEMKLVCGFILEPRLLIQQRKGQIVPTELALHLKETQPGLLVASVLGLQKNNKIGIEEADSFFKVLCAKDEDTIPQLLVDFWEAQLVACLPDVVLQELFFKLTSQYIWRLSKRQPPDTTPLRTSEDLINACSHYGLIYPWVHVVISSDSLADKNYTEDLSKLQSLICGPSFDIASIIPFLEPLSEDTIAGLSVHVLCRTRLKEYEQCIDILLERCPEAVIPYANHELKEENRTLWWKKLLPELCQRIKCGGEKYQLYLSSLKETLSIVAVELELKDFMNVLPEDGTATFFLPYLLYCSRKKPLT
UniProt Q9UJC3, whole entry, looked up: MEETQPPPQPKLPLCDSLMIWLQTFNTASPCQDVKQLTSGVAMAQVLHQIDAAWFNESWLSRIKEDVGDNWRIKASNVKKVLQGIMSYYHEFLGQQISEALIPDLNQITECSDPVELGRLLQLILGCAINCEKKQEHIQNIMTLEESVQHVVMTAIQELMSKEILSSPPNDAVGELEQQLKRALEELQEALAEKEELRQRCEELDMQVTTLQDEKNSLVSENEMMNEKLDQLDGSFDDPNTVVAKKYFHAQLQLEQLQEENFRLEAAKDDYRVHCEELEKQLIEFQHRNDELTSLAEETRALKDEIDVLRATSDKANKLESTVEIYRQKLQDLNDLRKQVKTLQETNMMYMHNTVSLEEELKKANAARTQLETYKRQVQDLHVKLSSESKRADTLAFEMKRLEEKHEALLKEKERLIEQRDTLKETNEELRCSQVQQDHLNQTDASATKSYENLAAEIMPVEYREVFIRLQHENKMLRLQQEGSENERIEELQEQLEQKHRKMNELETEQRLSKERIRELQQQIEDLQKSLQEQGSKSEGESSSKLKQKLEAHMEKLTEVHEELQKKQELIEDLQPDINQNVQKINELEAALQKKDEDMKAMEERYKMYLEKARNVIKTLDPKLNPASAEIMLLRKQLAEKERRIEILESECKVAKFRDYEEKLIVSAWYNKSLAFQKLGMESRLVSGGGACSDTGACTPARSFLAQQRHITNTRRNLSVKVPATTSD
UniProt O60243: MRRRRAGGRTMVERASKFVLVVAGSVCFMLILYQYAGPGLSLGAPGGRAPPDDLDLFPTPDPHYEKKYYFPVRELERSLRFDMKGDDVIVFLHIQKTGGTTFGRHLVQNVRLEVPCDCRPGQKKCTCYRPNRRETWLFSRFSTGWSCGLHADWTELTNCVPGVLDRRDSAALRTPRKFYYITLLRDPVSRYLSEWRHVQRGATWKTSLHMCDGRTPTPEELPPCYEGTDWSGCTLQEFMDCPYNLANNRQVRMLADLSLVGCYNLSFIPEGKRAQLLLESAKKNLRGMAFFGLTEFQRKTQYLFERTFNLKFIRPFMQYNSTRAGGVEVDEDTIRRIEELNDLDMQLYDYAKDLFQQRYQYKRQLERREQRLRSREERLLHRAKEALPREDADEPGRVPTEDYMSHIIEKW
UniProt Q96MH2: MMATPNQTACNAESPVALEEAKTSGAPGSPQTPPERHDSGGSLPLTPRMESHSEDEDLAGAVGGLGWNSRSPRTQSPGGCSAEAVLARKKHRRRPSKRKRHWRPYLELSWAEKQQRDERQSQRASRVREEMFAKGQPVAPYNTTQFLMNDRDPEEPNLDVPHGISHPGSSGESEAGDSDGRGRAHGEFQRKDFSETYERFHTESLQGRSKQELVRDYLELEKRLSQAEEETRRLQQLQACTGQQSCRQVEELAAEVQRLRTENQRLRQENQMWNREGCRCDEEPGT
UniProt P15428: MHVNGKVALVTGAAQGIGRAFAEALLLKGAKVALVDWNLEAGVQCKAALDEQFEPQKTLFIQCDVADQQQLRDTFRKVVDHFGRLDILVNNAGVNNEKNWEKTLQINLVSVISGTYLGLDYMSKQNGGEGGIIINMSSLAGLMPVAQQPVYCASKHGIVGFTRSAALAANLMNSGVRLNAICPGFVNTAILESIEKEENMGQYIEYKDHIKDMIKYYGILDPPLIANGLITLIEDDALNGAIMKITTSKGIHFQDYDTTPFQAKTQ
UniProt P04035: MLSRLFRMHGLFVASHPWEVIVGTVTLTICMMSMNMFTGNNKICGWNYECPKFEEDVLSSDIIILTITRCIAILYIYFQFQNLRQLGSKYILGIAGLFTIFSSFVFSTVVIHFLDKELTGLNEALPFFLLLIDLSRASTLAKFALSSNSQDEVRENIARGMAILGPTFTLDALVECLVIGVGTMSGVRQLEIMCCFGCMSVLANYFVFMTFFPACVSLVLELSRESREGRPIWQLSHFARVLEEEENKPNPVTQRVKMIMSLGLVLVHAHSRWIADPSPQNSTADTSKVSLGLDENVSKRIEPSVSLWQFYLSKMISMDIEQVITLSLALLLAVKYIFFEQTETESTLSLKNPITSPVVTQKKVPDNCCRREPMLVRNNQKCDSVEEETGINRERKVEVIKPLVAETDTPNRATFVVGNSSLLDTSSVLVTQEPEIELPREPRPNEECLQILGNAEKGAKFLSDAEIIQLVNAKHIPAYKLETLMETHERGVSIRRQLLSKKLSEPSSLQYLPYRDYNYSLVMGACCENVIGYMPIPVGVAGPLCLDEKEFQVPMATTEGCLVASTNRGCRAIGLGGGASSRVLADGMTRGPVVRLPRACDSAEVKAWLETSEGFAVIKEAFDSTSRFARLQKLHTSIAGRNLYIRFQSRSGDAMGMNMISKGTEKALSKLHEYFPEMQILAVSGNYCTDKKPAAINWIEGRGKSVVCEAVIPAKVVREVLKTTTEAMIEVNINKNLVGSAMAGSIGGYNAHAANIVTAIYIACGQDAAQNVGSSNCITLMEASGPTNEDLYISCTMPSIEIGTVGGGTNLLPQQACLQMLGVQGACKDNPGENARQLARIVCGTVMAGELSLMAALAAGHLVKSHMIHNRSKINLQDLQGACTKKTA
UniProt Q04756: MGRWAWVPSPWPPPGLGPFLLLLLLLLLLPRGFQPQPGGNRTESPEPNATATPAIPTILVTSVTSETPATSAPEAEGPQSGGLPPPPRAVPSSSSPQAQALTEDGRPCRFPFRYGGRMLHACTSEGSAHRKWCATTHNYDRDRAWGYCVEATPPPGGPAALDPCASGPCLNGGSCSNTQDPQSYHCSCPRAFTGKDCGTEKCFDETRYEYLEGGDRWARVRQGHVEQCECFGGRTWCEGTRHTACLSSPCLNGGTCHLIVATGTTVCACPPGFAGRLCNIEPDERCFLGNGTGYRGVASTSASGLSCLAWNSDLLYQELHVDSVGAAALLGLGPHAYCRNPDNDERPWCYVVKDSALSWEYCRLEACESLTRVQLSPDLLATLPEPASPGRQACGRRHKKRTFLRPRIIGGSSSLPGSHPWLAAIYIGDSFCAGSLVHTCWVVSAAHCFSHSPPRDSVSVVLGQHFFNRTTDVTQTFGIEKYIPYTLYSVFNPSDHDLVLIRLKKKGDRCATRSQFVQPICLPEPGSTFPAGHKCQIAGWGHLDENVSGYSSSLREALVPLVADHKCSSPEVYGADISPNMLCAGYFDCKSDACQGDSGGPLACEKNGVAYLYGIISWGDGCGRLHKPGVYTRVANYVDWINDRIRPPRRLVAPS
UniProt Q9BQA5: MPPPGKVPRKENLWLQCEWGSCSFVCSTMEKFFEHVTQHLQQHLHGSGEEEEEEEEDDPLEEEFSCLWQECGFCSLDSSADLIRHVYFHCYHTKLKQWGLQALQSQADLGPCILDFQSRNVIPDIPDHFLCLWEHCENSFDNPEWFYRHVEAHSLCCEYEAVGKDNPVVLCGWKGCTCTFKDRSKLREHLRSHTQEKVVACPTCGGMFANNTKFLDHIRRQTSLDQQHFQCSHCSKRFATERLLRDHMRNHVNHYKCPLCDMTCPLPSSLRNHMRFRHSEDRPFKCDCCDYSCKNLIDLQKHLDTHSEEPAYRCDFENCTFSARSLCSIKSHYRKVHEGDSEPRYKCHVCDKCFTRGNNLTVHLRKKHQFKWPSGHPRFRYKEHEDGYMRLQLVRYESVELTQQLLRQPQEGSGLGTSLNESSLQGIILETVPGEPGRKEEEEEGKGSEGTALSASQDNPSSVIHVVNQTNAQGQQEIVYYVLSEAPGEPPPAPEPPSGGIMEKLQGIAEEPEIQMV

Columns and labels:
Assay in all cases: log2 fold change, soluble protein after heating vs DMSO (PISA); higher = thermal stabilisation; K562 lysate, 10 uM; active = over 0.2 and 3.5 SD of the protein, either way, in both replicates (recomputed)
lapatinib = compound: CS(=O)(=O)CCNCc1ccc(-c2ccc3ncnc(Nc4ccc(OCc5cccc(F)c5)c(Cl)c4)c3c2)o1 [lapatinib]
Procedure, shortened: (§1)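 Values give the log-two fold change in thermal stability against solvent controls, from duplicates. Crude K562 extract at 1 mg/mL protein, made by dounce homogenisation in PBS pH 7.4 with 1 mM MgCl2, was treated with 10 μM compound for 30 min. After 3 min heating across 48°C-58°C, aliquots were pooled, adjusted to 0.5% NP-40 at 4°C and centrifuged at 21,000xg for 90 min. The supernatant was measured by TMTpro 16plex LC-MS/MS with channel sums equalised.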

pictilisib = compound: CS(=O)(=O)N1CCN(Cc2cc3nc(-c4cccc5[nH]ncc45)nc(N4CCOCC4)c3s2)CC1 [pictilisib]
Procedure, shortened: as §1

crizotinib = compound: C[C@@H](Oc1cc(-c2cnn(C3CCNCC3)c2)cnc1N)c1c(Cl)ccc(F)c1Cl [crizotinib]
Procedure, shortened: as §1

[1] = compound: C[C@H](C1=CC=C(C=C1)C(=O)NC2=C3C=CNC3=NC=C2)N
Procedure, shortened: as §1

duvelisib = compound: C[C@H](Nc1ncnc2nc[nH]c12)c1cc2cccc(Cl)c2c(=O)n1-c1ccccc1 [duvelisib]
Procedure, shortened: as §1

gandotinib = compound: Cc1cc(Nc2cc(CN3CCOCC3)c3nc(C)c(Cc4ccc(Cl)cc4F)n3n2)n[nH]1 [gandotinib]
Procedure, shortened: as §1

tozasertib = compound: Cc1cc(Nc2cc(N3CCN(C)CC3)nc(Sc3ccc(NC(=O)C4CC4)cc3)n2)n[nH]1 [tozasertib]
Procedure, shortened: as §1

doramapimod = compound: Cc1ccc(-n2nc(C(C)(C)C)cc2NC(=O)Nc2ccc(OCCN3CCOCC3)c3ccccc23)cc1 [doramapimod]
Procedure, shortened: as §1

bafetinib = compound: Cc1ccc(NC(=O)c2ccc(CN3CC[C@H](N(C)C)C3)c(C(F)(F)F)c2)cc1Nc1nccc(-c2cncnc2)n1 [bafetinib]
Procedure, shortened: as §1

[2] = compound: Cc1cccc(CC(=O)N2CCc3c2ccc(-c2cn(C)c4ncnc(N)c24)c3F)n1
Procedure, shortened: as §1

nilotinib = compound: Cc1cn(-c2cc(NC(=O)c3ccc(C)c(Nc4nccc(-c5cccnc5)n4)c3)cc(C(F)(F)F)c2)cn1 [nilotinib]
Procedure, shortened: as §1

[3] = compound: Cc1nc(Nc2n[nH]c3c2CN(C(=O)N[C@H](CN(C)C)c2ccccc2)C3(C)C)c2sccc2n1
Procedure, shortened: as §1

dasatinib = compound: Cc1nc(Nc2ncc(C(=O)Nc3c(C)cccc3Cl)s2)cc(N2CCN(CCO)CC2)n1 [dasatinib]
Procedure, shortened: as §1

[4] = compound: Cc1ncc(-c2ccnc(Nc3ccc(S(C)(=O)=O)cc3)n2)n1C(C)C
Procedure, shortened: as §1

[5] = compound: Cn1cc(-c2ccc3c(c2)CCN3C(=O)Cc2cccc(C(F)(F)F)c2)c2c(N)ncnc21
Procedure, shortened: as §1

quisinostat = compound: Cn1cc(CNCC2CCN(c3ncc(C(=O)NO)cn3)CC2)c2ccccc21 [quisinostat]
Procedure, shortened: as §1

tipifarnib = compound: Cn1cncc1[C@@](N)(c1ccc(Cl)cc1)c1ccc2c(c1)c(-c1cccc(Cl)c1)cc(=O)n2C [tipifarnib]
Procedure, shortened: as §1

[6] = compound: NC(=O)Nc1cc(-c2cccc(F)c2)sc1C(=O)N[C@H]1CCCNC1
Procedure, shortened: as §1

[7] = compound: NC(=O)c1cnc(N[C@@H]2CCCC[C@@H]2N)nc1Nc1cccc(-n2nccn2)c1
Procedure, shortened: as §1

[8] = compound: NC1(c2ccc(-c3nc4ccn5c(=O)[nH]nc5c4cc3-c3ccccc3)cc2)CCC1
Procedure, shortened: as §1

Measured: log2 fold change

HIBCH (UniProt Q6NVY1)
inactive: lapatinib -0.011 | pictilisib -0.024 | crizotinib -0.02 | [1] 0.062 | duvelisib -0.007 | gandotinib -0.063 | tozasertib 0.009 | doramapimod -0.007 | bafetinib -0.015 | [2] -0.084 | nilotinib -0.021 | [3] 0.016 | dasatinib 0.021 | [4] 0.025 | [5] 0.002 | quisinostat 0.008 | tipifarnib 0.043 | [6] 0.007 | [7] -0.005 | [8] 0.006

HERPUD1 (UniProt Q15011)
inactive: pictilisib 0.044 | [1] 0.086 | gandotinib -0.072 | tozasertib 0.046 | bafetinib -0.09 | [2] 0.002 | nilotinib 0.023 | [3] -0.091 | [4] -0.165 | tipifarnib -0.154

HSP90AA2P (UniProt Q14568)
inactive: crizotinib 0.002 | tozasertib -0.043 | doramapimod -0.049 | quisinostat 0.016 | [6] -0.026

HSD3B7 (UniProt Q9H2F3)
inactive: nilotinib 0.105 | [3] -0.087 | [4] 0.029 | tipifarnib 0.066

HPS3 (UniProt Q969F9)
inactive: crizotinib -0.07 | [1] 0.016 | duvelisib 0.059 | gandotinib -0.163 | tozasertib -0.061 | doramapimod -0.129 | [2] 0.053 | nilotinib 0.022 | [3] -0.031 | dasatinib -0.03 | [4] -0.004 | [5] 0.02 | quisinostat -0.085 | tipifarnib -0.052 | [6] -0.069 | [8] -0.012

HOOK1 (UniProt Q9UJC3)
inactive: [1] -0.582 | duvelisib 0.117 | gandotinib 0.225 | [2] 0.334 | dasatinib -0.057 | [5] -0.089 | [8] -0.131

HELLS (UniProt Q9NRZ9)
inactive: crizotinib 0.117 | duvelisib 0.027 | tozasertib -0.112 | doramapimod 0.116 | nilotinib -0.076 | [3] 0.049 | dasatinib -0.018 | [4] 0.034 | [5] 0.19 | quisinostat 0 | tipifarnib 0.01 | [6] -0.018 | [8] -0.063

HS6ST1 (UniProt O60243)
inactive: [8] -0.19

HEXIM2 (UniProt Q96MH2)
inactive: crizotinib 0.012 | duvelisib -0.19 | doramapimod -0.069 | dasatinib 0.024 | [5] -0.116 | quisinostat -0.055 | [6] 0.004 | [8] 0.015

HPGD (UniProt P15428)
inactive: [1] 0.132 | duvelisib 0.129 | gandotinib 0.34 | tozasertib 0.201 | [2] -0.137 | dasatinib 0.343 | [5] -0.204

HNRNPM (UniProt M0QZM1)
inactive: pictilisib 0.076 | crizotinib -0.07 | duvelisib -0.06 | tozasertib 0.075 | doramapimod -0.017 | bafetinib -0.243 | dasatinib -0.022 | [5] -0.163 | quisinostat 0 | [6] -0.012

Taken from the entries so far (two entries):
HEXIM2 (UniProt Q96MH2)
inactive: crizotinib 0.012 | duvelisib -0.19 | doramapimod -0.069 | dasatinib 0.024 | [5] -0.116 | quisinostat -0.055 | [6] 0.004 | [8] 0.015

HPGD (UniProt P15428)
inactive: [1] 0.132 | duvelisib 0.129 | gandotinib 0.34 | tozasertib 0.201 | [2] -0.137 | dasatinib 0.343 | [5] -0.204

Additional records follow.

HMGCR isoform 3 (UniProt P04035)
inactive: crizotinib -0.248 | tozasertib 0.131 | doramapimod 0.093 | quisinostat -0.151 | [6] 0.137

HGFAC (UniProt Q04756)
inactive: [1] -0.198 | gandotinib 0.129 | [2] -0.003 | nilotinib -0.029 | [3] 0.089 | [4] 0.181 | tipifarnib 0.011

HGF (UniProt P14210)
inactive: crizotinib 0.05 | [1] -0.002 | gandotinib -0.052 | doramapimod 0.037 | [2] 0.048 | quisinostat -0.222 | [6] 0 | [8] 0.05

HINFP (UniProt Q9BQA5)
inactive: crizotinib -0.218 | doramapimod 0.111 | nilotinib 0.217 | [3] 0.035 | [4] 0.054 | quisinostat -0.278 | tipifarnib -0.078 | [6] 0.187
